We go through 1 substance from paper doi:10.1101/2023.05.22.23290124.

The chains behind the UniProt entries cited, without tags or fusion partners.
UniProt P25786: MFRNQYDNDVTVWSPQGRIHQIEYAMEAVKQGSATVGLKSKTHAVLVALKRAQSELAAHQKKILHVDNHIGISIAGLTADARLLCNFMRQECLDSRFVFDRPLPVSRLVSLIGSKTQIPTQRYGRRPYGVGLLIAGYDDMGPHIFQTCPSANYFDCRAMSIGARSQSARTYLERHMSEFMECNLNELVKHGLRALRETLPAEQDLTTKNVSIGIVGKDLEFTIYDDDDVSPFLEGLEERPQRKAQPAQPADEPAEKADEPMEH
UniProt Q13148: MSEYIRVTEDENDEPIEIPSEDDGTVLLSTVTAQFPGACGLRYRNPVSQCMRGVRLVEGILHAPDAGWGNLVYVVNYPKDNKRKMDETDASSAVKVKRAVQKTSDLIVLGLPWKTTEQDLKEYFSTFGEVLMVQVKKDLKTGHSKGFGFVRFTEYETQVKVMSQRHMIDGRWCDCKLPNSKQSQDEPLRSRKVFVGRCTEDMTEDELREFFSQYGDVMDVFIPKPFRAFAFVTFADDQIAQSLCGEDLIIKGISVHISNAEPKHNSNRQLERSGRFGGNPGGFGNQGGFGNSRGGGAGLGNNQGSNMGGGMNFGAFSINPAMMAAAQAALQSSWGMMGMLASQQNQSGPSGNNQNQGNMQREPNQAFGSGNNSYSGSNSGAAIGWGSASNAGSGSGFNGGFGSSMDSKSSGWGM

Results are given in words; binding and its absence hold for the method and conditions named. Binding seen in cells or lysates may run through a third protein. Here binding means that the protein was enriched with, or labelled near, the bait; the list need not be complete.

The experiment addresses PSMA1 (a core component of 20S proteasome) (human (endogenous in hiPSC-derived neurons)) (UniProt P25786). Briefly: affinity purification with mass spectrometry.

As for TDP-43 (from UniProt Q13148 1-414), the binding entry is recorded as “binds”.
